Patent publication US20240190966A1
These are yes or no findings as the source states them, for the method shown. Some entries that bind do so weakly or less than the wild type. For some assays here: Where a sequence is shown, tags or fusion partners need not be part of it.

Chains of the proteins cited; added tags and fusions are not shown. Lines headed by an entry give the natural chain unless they say otherwise; changes in a name come on top.
UniProt P07766: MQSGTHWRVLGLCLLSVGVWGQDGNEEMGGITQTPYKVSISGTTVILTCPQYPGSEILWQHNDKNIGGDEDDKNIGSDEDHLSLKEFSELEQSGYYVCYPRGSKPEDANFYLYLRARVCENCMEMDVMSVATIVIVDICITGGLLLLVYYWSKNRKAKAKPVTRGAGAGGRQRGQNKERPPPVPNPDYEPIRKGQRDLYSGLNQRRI

Assays:
[1] = target: T1, cyno extracellular domain (ECD) of CD3 (cynomolgus monkey) (UniProt Q95LI5); experiment: BIAcore SPR
T1 sequence: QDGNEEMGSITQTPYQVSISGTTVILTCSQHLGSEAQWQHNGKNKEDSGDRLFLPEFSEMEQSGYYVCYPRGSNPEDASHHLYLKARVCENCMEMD

[2] = target: human extracellular domain (ECD) of CD3 (human) (UniProt P07766); experiment: BIAcore SPR
[3] = target: T2, human LY6G6D-Fc (human) (UniProt O95868); experiment: BIAcore SPR
T2 sequence: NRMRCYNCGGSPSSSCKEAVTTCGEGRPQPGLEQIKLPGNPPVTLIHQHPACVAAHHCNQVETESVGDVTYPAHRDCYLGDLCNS

[4] = target: T2, human LY6G6D-Fc (human); experiment: BIAcore SPR; LY6G6D-Fc immobilized; 37 C (FIG. 36)
[5] = target: T2, human LY6G6D-Fc (human); experiment: BIAcore SPR, TDB, 37 C

Measured: binding

B1: LY6G6D TDB comprising the anti-LY6G6D 20A12.QNTv12 arm (two-cell) and the anti-CD3 38E4.v1 arm (bispecific antibody, V domains shown)
VH 1: EVQLLESGGGLVQPGGSLRLSCAASGFDFVNNAMIWVRQAPGKGLEWVSALSFADNTAYYATWASGRFTISRDSSKTTVYLQMNSLRAEDTAVYYCMRGDLWGPGTLVTVSS
VL 1: DIQMTQSPSTLSASVGDRVTITCQASESITRYLNWYQQKPGKAPKLLIYDASKLPSGVPSRFSGSGSGTEFTLTISSLQPDDFATYYCQSTSFRGRSYQNTFGGGTKVEIK
VH 2: EVQLVQSGAEVKKPGASVKVSCKASGFTFTSYYIHWVRQAPGQGLEWIGWIYPENDNTKYNEKFKDRVTITADTSTSTAYLELSSLRSEDTAVYYCARDGYSRYYFDYWGQGTLVTVSS
VL 2: DIVMTQSPDSLAVSLGERATINCKSSQSLLNSRTRKNYLAWYQQKPGQSPKLLIYWTSTRKSGVPDRFSGSGSGTDFTLTISSLQAEDVAVYYCKQSFILRTFGQGTKVEIK
binds: all assays above
